Assay results: the supplement of paper PMC3334620
Whole data set: some 33,000 sequences, median “E-score (-0.5 to 0.5)” near -0.0059, cut for the highest 2% near 0.26. Some of the results follow.

These sequences were tested against T1, Cin5 (UniProt P40917) (assay: PBM E-score (8-mer binding enrichment) (E-score (-0.5 to 0.5)); higher = stronger / more preferred TF binding). Settings: protein concentration: 100 nM; construct: GST-full length.
T1 sequence: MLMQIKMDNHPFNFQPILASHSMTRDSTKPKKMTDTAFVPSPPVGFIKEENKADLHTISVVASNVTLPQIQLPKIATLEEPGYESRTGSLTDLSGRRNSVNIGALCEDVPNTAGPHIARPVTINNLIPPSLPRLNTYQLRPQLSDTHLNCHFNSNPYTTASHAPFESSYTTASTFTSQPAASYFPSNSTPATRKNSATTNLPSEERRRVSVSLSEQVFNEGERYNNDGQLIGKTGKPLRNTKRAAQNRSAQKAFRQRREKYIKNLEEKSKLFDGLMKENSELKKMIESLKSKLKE
Method: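 Universal 'all 10-mer' protein binding microarrays (Agilent AMADID 015681) probed with GST-tagged S. cerevisiae TFs (full-length or DBD) made by in vitro transcription/translation (PURExpress), about 100-200 nM. Bound TF was detected with fluorescent anti-GST. Each ungapped 8-mer (which stands for itself and its reverse complement) is scored by the PBM enrichment score (E-score), a modified Wilcoxon-Mann-Whitney statistic from -0.5 to +0.5, computed with the Universal PBM Analysis Suite. Scale: above 0.35 generally sequence-specific binding.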
With ACCTACTA the “PBM E-score” value was 0.165. TTACCGAA was tested, and the “PBM E-score” value was 0.218. For ATTATGCG, the “PBM E-score” value was 0.338. In the case of ATAGGATC, the “PBM E-score” value is reported as -0.0205. For TGATATCA, the “PBM E-score” value was 0.0713. CTATCACA was tested, and the “PBM E-score” value was 0.173. In the case of GCTTACCA, the “PBM E-score” value is reported as 0.381. With ACTGTGAG the “PBM E-score” value was -0.034. For AGCATTCC, the “PBM E-score” value was 0.0595. In the case of CAAACCTA, the “PBM E-score” value is reported as 0.133. For CTTTTTTA, the “PBM E-score” value was 0.0209. In the case of CAACATAG, the “PBM E-score” value is reported as 0.0889. In the case of AATCAGTA, the “PBM E-score” value is reported as 0.223. GCGATGTA was tested, and the “PBM E-score” value was 0.0756. AATGCTTC was tested, and the “PBM E-score” value was 0.118. AGTACCAG was tested, and the “PBM E-score” value was 0.0123. With AGTCTGTG the “PBM E-score” value was -0.136. For ACCTCTGC, the “PBM E-score” value was -0.143. For GGACGTGA, the “PBM E-score” value was -0.14. With GAGTAAAC the “PBM E-score” value was 0.0697. With AGCTCGGG the “PBM E-score” value was 0.0324. GTTAGAAC was tested, and the “PBM E-score” value was -0.0566. TCAACCAA was tested, and the “PBM E-score” value was 0.0695. With AATGAGAC the “PBM E-score” value was -0.0439. For TGATGTAA, the “PBM E-score” value was 0.329. In the case of ACCTTGAT, the “PBM E-score” value is reported as 0.12. With GTGGTTCA the “PBM E-score” value was 0.172. For CACTACAC, the “PBM E-score” value was 0.00684. TAACCGGA was tested, and the “PBM E-score” value was 0.106. For CTTTGGCC, the “PBM E-score” value was -0.0561. CGTTTGGA was tested, and the “PBM E-score” value was -0.0143. CGGGCATA was tested, and the “PBM E-score” value was -0.108. With AAGCTGCG the “PBM E-score” value was -0.0682. For CACACGAC, the “PBM E-score” value was -0.0441. With AAGTTGTG the “PBM E-score” value was 0.265. In the case of AACAAATA, the “PBM E-score” value is reported as 0.278. In the case of ATTACACG, the “PBM E-score” value is reported as 0.0848. AAAAACGT was tested, and the “PBM E-score” value was 0.00218. In the case of AGGCTTAC, the “PBM E-score” value is reported as 0.258. In the case of CGGCATAC, the “PBM E-score” value is reported as -0.0796. For TCCCACGA, the “PBM E-score” value was -0.00171. For CCGGACTA, the “PBM E-score” value was 0.00432. With GCTAGGTA the “PBM E-score” value was -0.0363. AGGGTAAG was tested, and the “PBM E-score” value was 0.0407. TAAACGCA was tested, and the “PBM E-score” value was 0.0929. For AGATGAAT, the “PBM E-score” value was 0.1. For ATAACTCA, the “PBM E-score” value was 0.152. CTCTTTAA was tested, and the “PBM E-score” value was -0.116. With GAACGTAC the “PBM E-score” value was -0.115. In the case of GGGCATAA, the “PBM E-score” value is reported as 0.035. With ACTCTTGA the “PBM E-score” value was -0.16. With TCAATTAA the “PBM E-score” value was 0.0498. GTGATCTA was tested, and the “PBM E-score” value was 0.084. In the case of CATACGTA, the “PBM E-score” value is reported as 0.242. ACCACATA was tested, and the “PBM E-score” value was 0.0866. For ACGCATCG, the “PBM E-score” value was -0.00264. AGGCTGAT was tested, and the “PBM E-score” value was 0.00129. CCAAAAAA was tested, and the “PBM E-score” value was 0.174. GCTCCCCC was tested, and the “PBM E-score” value was -0.462. With CGTTGGGC the “PBM E-score” value was -0.0408. GAACTCTA was tested, and the “PBM E-score” value was -0.0133. With GGAGCGAC the “PBM E-score” value was -0.149. In the case of AGCCGCAC, the “PBM E-score” value is reported as -0.114. For CATCGTTC, the “PBM E-score” value was -0.0867. In the case of AACGTCAG, the “PBM E-score” value is reported as -0.00364. In the case of AACGCTGT, the “PBM E-score” value is reported as -0.0199. AATATCCC was tested, and the “PBM E-score” value was 0.153. For ATTAGGGC, the “PBM E-score” value was -0.0867. In the case of CAAATGCG, the “PBM E-score” value is reported as 0.126. ATTGAACC was tested, and the “PBM E-score” value was 0.0817. With GCAGTTAA the “PBM E-score” value was 0.13. For ATTCCTTG, the “PBM E-score” value was -0.194. For TCCTACCA, the “PBM E-score” value was -0.22. For GAAGGAAA, the “PBM E-score” value was -0.102. TGAGGGCA was tested, and the “PBM E-score” value was -0.0165. For GGGTCAAC, the “PBM E-score” value was 0.143. In the case of ACATCTAC, the “PBM E-score” value is reported as 0.145. GGGTTCGA was tested, and the “PBM E-score” value was -0.142. For GAATTTCA, the “PBM E-score” value was 0.0435. For CTCATTGC, the “PBM E-score” value was 0.032. For CCCTCTCG, the “PBM E-score” value was -0.222. With CCAGGCAC the “PBM E-score” value was -0.0617. In the case of TTCGGAAA, the “PBM E-score” value is reported as 0.0337. CAACCAAC was tested, and the “PBM E-score” value was -0.0614. For AGCCTCCA, the “PBM E-score” value was -0.159. ATTAGATA was tested, and the “PBM E-score” value was 0.301. With CTAGCCTA the “PBM E-score” value was -0.171. With CCTGACGA the “PBM E-score” value was 0.0104. For CGCCCTTC, the “PBM E-score” value was -0.222. For TAGCGTAA, the “PBM E-score” value was 0.229. AGGACGGG was tested, and the “PBM E-score” value was -0.216. For AGTATTGC, the “PBM E-score” value was 0.065. In the case of CTCTGCGC, the “PBM E-score” value is reported as -0.0221. In the case of GGTACAAC, the “PBM E-score” value is reported as 0.0222. With CAGAGTTC the “PBM E-score” value was -0.0406. For CCCGCTAG, the “PBM E-score” value was -0.199. For CGCCTCAC, the “PBM E-score” value was -0.0527. For GCTAAAAC, the “PBM E-score” value was -0.0775. For GAACTTCA, the “PBM E-score” value was -0.0563. GGTGTCAA was tested, and the “PBM E-score” value was -0.0699. AGTGCCGA was tested, and the “PBM E-score” value was -0.0154. In the case of GAGATAGC, the “PBM E-score” value is reported as 0.0271. CTAATTAA was tested, and the “PBM E-score” value was -0.0017. AACAATAT was tested, and the “PBM E-score” value was 0.345. For ACAAACCC, the “PBM E-score” value was 0.0357. For AGGGGAGC, the “PBM E-score” value was -0.262. For CACCGGAG, the “PBM E-score” value was -0.115. For GGACGGCC, the “PBM E-score” value was -0.204. In the case of TACGCCCA, the “PBM E-score” value is reported as 0.0142. CATCCTTC was tested, and the “PBM E-score” value was 0.0872. For CGGTATAG, the “PBM E-score” value was -0.0391. CTTAATGC was tested, and the “PBM E-score” value was 0.135. In the case of AAACAATT, the “PBM E-score” value is reported as 0.154. For AAACGGTG, the “PBM E-score” value was -0.166. In the case of CATACAAC, the “PBM E-score” value is reported as 0.197. AACCTGGA was tested, and the “PBM E-score” value was 0.0157. For CCCCTCAG, the “PBM E-score” value was -0.211. With CTCCTACA the “PBM E-score” value was -0.011. CCGGATTC was tested, and the “PBM E-score” value was 0.0513. AACCACTT was tested, and the “PBM E-score” value was 0.126. In the case of AGCTTCCC, the “PBM E-score” value is reported as -0.174. In the case of TGCTACAA, the “PBM E-score” value is reported as 0.0648. In the case of AAGTCTAA, the “PBM E-score” value is reported as -0.0864. For CAATTTAG, the “PBM E-score” value was 0.161. With TCTCATAA the “PBM E-score” value was 0.165. In the case of CGGGTCGC, the “PBM E-score” value is reported as -0.112. In the case of TAGGTAAA, the “PBM E-score” value is reported as 0.125. For TGTAGAAA, the “PBM E-score” value was -0.00542. With ATGCTCAC the “PBM E-score” value was 0.0224. In the case of CCTTCGCC, the “PBM E-score” value is reported as -0.338. For ATTCGCGG, the “PBM E-score” value was 0.0945. ACATCTCC was tested, and the “PBM E-score” value was 0.021. In the case of ATGTCCCA, the “PBM E-score” value is reported as -0.146. GGATGCTA was tested, and the “PBM E-score” value was -0.0218. For ATTCCAAG, the “PBM E-score” value was 0.032. TAAGTGCA was tested, and the “PBM E-score” value was 0.202. In the case of ATGTGGTC, the “PBM E-score” value is reported as 0.127. For AATCATAA, the “PBM E-score” value was 0.164. In the case of CCGCTACC, the “PBM E-score” value is reported as 0.0111. With ACCCAAAT the “PBM E-score” value was 0.0648. In the case of GATAGGGA, the “PBM E-score” value is reported as -0.129. AGACACTA was tested, and the “PBM E-score” value was 0.126. GATAGATC was tested, and the “PBM E-score” value was 0.00499. For CCAGTTGA, the “PBM E-score” value was -0.0468. GAGAAAGC was tested, and the “PBM E-score” value was -0.0555. For AACCACGT, the “PBM E-score” value was -0.0437. For ACTCCTGA, the “PBM E-score” value was 0.0279. With TACCTGCA the “PBM E-score” value was 0.0178. With CACTCGGA the “PBM E-score” value was 0.12. With ACCCCGCT the “PBM E-score” value was -0.0379. In the case of AGAAACGG, the “PBM E-score” value is reported as -0.00443. GCTGATTA was tested, and the “PBM E-score” value was 0.279. GACGCGTA was tested, and the “PBM E-score” value was 0.0632. GGTAACAA was tested, and the “PBM E-score” value was 0.225. CATACTAC was tested, and the “PBM E-score” value was 0.0431. With AGTACACG the “PBM E-score” value was -0.0913. For GAAATCAC, the “PBM E-score” value was 0.149. AAAATTCT was tested, and the “PBM E-score” value was 0.0637. For CTGTTCCC, the “PBM E-score” value was -0.193. For CGGGGATC, the “PBM E-score” value was -0.251. With AGTCGCCG the “PBM E-score” value was 0.00437. AAGTTGTC was tested, and the “PBM E-score” value was 0.127. For CAGCTCGA, the “PBM E-score” value was 0.0186. AGGTACGG was tested, and the “PBM E-score” value was -0.152. ACAGGCGG was tested, and the “PBM E-score” value was -0.0156. ATGACATG was tested, and the “PBM E-score” value was 0.0189. In the case of CAGAGTAG, the “PBM E-score” value is reported as 0.0664. CGCTGATA was tested, and the “PBM E-score” value was 0.0246. ACGGCTGG was tested, and the “PBM E-score” value was -0.193. ACTGGCCT was tested, and the “PBM E-score” value was -0.128. With TAAATATA the “PBM E-score” value was 0.261. GCTTGGCA was tested, and the “PBM E-score” value was -0.246.
